At least one structure is not confirmed: it was looked up by name or label, or the drawing left a doubt.
Legend:
iNOS [1] = test: iNOS protein immunoblot, IFN-γ-stimulated N9 microglia; format: cell-based, murine; settings: N9 cells, IFN-γ 200 u ml, 24 h, dexamethasone 500 nM
Experimental: Tranilast was a generous gift of Kissei Pharmaceuticals (Nagano, Japan). Murine recombinant IFN-γ was purchased from Boehringer (Mannheim, Germany). Dexamethasone (DEX) was obtained from Sigma (Deisenhofen, Germany). N9 murine microglial cells were a kind gift from P. Ricciardi-Castagnoli (Milano, Italy) (Righi, M., Mori, L., De Libero, G., Sironi, M., Biondi, A., Mantovani, A., Donini, S. D. and Ricciardi-Castagnoli, P. Eur J Immunol 19(8):1443-1448, 1989). The cells were cultured in Dulbecco's modified Eagle's medium (DMEM) supplemented with 10% foetal calf serum (FCS), 2 mM glutamine and penicillin ([…])/streptomycin (100 μg ml), and maintained at 37° C. in an atmosphere of 5% CO2. Viability was assessed by crystal violet staining.
For the preparation of whole cell lysates, the cells were rinsed in phosphate-buffered saline (PBS), harvested, centrifuged at 1200×g, lysed in 0.1 M TRIS-HCl (pH 7.2) containing 0.1% NP40, 0.1 mM EDTA and 5 μg ml PMSF for 40 min on ice, and centrifuged at 10,000×g for 10 min. Protein concentration was determined using Biorad reagents with photometric analysis. Proteins (20 μg lane) were separated by 10-12% SDS-PAGE and electroblotted on nitrocellulose. qual protein loading was controlled by Ponceau S staining. […]

iNOS [2] = test: iNOS activity by Griess assay (nitrite formation), LPS-stimulated N9 microglia; format: cell-based, murine; settings: N9 cells, LPS 10 μg/mL, 48 hr, concentration series
Source text: TNL was a generous gift of Kissei Pharmaceuticals, LPC (Escherichia coli, 0127:BS), phorbol 12-myristate 13-acetate (PMA) and dexamethasone (DEX) were obtained from Sigma, BAY 11-7082 (BAY), NF-κB SN50 inhibitory peptide (SN50), GF 109203X (GFX) and rottlerin (ROT) were purchased from Biomol. PD098059 (PD) was obtained from Calbiochem. Purified murine interferon-γ (IFN-γ) was purchased from Roche Diagnostics. N9 murine microglial cells were a kind gift from P. Ricciardi-Castagnoli (Righi, M. et al. 1989 supra). Cells were cultured in Dulbecco's modified Eagle's medium (DMEM) supplemented with 10% fetal calf serum (FCS), 2 mM glutamine, penicillin (100 unit/mL) and streptomycin (100 μg/mL) and maintained at 37° in an atmosphere of 5% CO2. Viability was assessed by crystal violet staining.
iNOS activity was assessed by the Griess assay (Platten, M., Wick, W., Wischhusen, J. and Weller, M. Br J Pharmacol 134(6):1279-1284, 2001). […] The absorbance was measured at 546 nm. […] To control for cell number, the cells were stained with crystal violet. iNOS activity is expressed as nitrite accumulated in 48 hr/10^5 cells.

C[C@@H]1C[C@H]2[C@@H]3CCC4=CC(=O)C=C[C@]4(C)[C@@]3(F)[C@@H](O)C[C@]2(C)[C@@]1(O)C(=O)CO [dexamethasone]
IFN-γ-induced iNOS protein expression (iNOS [1]): greatly suppressed | nitrite formation after LPS (iNOS [2]): concentration-dependent decrease

From patent publication US7531575B2, “Method of modulating cellular activity and agents useful for same” (Eberhard-Karls-Universität Tübingin, priority 2002, dated 2009)
